The results in this text go back to patent US9321804B2, “Synthesis and use of anti-tumor drug LQC-Y” (Beijing University of Chinese Medicine, priority 2011, dated 2016).

The test system of data set [1] is S180 sarcoma of mice. Nature of the data set: Tumor inhibiting effect of LQC-Y3 on tumor bearing S180 mice. As to conditions: for spleen index compared with the negative control group: LQC-Y3 middle and large dosage group (150, 300 mg/kg), cyclophosphamide 0.02 g/(Kg.d). As for the experimental part: The S180 mice that had been inoculated for 7 days were killed by breaking the neck thereof and ascites was taken from the mice respectively in an aseptic environment and the ascites was washed using RPMI1640 culture medium for 2 times and then made into a 2×10^7/ml cell suspension using aseptic physiological saline. Then the obtained S180 cell suspension was inoculated hypodermically at the right axillary of mice, 0.1 ml for each mouse and 50 mice total, to establish the solid tumor model.
(§1) 60 mice were divided into 2 categories, including 6 groups, according to the random number table method, i.e. normal control group of the first category, and S180 solid tumor groups of the second category which included positive (cyclophosphamide) control group, negative control group, small dosage group, middle dosage group and large dosage group, 10 mice for each group. The experiment was repeated for 3 times.
LQC-Y3 was prepared using 0.5% CMC-Na. The dosage of the small dosage group was 75 mg/Kg, the dosage of the middle dosage group was 150 mg/Kg, and the dosage of the large dosage group was 300 mg/kg. Equal volume of 0.5% CMC-Na was injected into the mice of the negative control group and cyclophosphamide injection 0.02 g/(Kg.d) was injected into the mice of the positive control group. These medicines were administrated 0.1 ml per mouse by intraperitoneal injection every the other day continuously for 15 days. During this period, the common behavior, hair, excrement and so on were observed daily. The mice that had been inoculated with S180 by hypodermic inoculation were killed by breaking the neck thereof after 24 h after the last administration and the tumor, liver and spleen were then taken.
The weight of the solid tumor group mice were measured after all the administration was finished and then the mice were killed. The spleens and the livers thereof were weighed by an electronic balance. The spleen index was calculated as the spleen weight of a mouse (mg)/the body weight of a mouse (g) and the liver index was calculated as the liver weight of a mouse […]/the body weight of a mouse (g).
The solid tumor negative control group mice were weighed on the next day after the administration was finished (the eyeballs of the mice were removed to bleed and the serum was collected for subsequent experimental use). Then the mice were killed by breaking the neck thereof. The tumor tissues were taken out and weighed by an electronic balance to calculate the tumor inhibiting ratio.
(§2) All the data were statistically analyzed using SPSS11.0 software pack. The comparison of the enumeration data was carried out with X^2 test. P<0.05 had statistical significance.

In data set [2] the test system is S180 sarcoma of mice. Nature of the data set: Tumor inhibiting effect of LQC-Y2 in tumor bearing S180 mice. Particulars: for spleen index compared with the negative control group: LQC-Y2 small dosage group (75 mg/Kg), cyclophosphamide 0.02 g/(Kg.d); for Spleen index (mg/g) / Spleen index: S180 mice, 15 days. As for the experimental part: The S180 mice that had been inoculated for 7 days were killed by breaking the neck thereof and ascites was taken from the mice respectively in an aseptic environment and the ascites was washed using RPMI1640 culture medium for 2 times and then made into a […] /ml cell suspension using aseptic physiological saline. Then the obtained S180 cell suspension was inoculated hypodermically at the right axillary of mice, 0.1 ml for each mouse and 50 mice total, to establish the solid tumor model.
as §1
LQC-Y2 was made into an emulsion using corn oil. The dosage of the small dosage group was 75 mg/Kg, the dosage of the middle dosage group was 150 mg/Kg, and the dosage of the large dosage group was 300 mg/kg. Equal volume of corn oil was injected into the mice of the negative control group, cyclophosphamide injection 0.02 g/(Kg.d) was injected into the mice of the positive control group. These medicines were administrated 0.1 ml per mouse by intraperitoneal injection every the other day continuously for 15 days. During this period, the common behavior, hair and excrement and so on were observed daily. The mice that had been inoculated with S180 by hypodermic inoculation were killed by breaking the necks thereof after 24 h after the last administration and the tumor, liver and spleen were then taken.
The weight of the solid tumor group mice were measured after all the administration was over and then the mice were killed. The spleens and the livers thereof were weighed by an electronic balance. The spleen index was calculated as the spleen weight of a mouse (mg)/the body weight of a mouse(g) and the liver index was calculated as the liver weight of a mouse[…]/the body weight of a mouse(g).
The solid tumor negative control group mice were weighed on the next day after the administration was finished (the eyeballs of the mice were removed to bleed and the serum was collected for subsequent experimental use). Then the mice were killed by breaking the neck thereof. The tumor tissues were taken out and weighed by an electronic balance to calculate the tumor-inhibiting ratio.
as §2

Each structure is given as a SMILES string.

Turning to `O=P1(N(CCCl)CCCl)NCCCO1` (centres unmarked) [Cyclophosphamide, reference compound], the “spleen index compared with the negative control group” value in data set [1] and in data set [2] was “smaller than those of the negative control group” in each case. Further, the “Spleen index (mg/g)” value was 3.93 ± 1.11^(1)(4) mg/g in data set [1] (S180 mice, cyclophosphamide 0.02 g/(Kg.d) i.p., 15 days) and 2.91 ± 0.10^(1)(4) mg/g in data set [2] (cyclophosphamide 0.02 g/(Kg.d) i.p.).

For `Cc1nc(C)c(COC(=O)CCC(C)C2CCC3C4CCC5CC(O)CCC5(C)C4CC(O)C23C)nc1C` (centres unmarked) [LQC-Y2, (3,5,6-trimethyl pyrazine-2-yl)methyl-4-(3,12-dihydroxy-10,13-dimethylhexadecahydro-1H-cyclopenta[a]phenanthren-17-yl)pentanoate], the “effect on the spleen index of tumor bearing mice” value in data set [2] (75-300 mg/kg i.p.) is listed as “can Increase the Spleen Index”. The “spleen index compared with the negative control group” value in data set [2] is “bigger than the negative control group”. Moreover, the entries for the “Spleen index” value in data set [2] (large dosage 300 mg/kg i.p. every other day) and in data set [2] (middle dosage 150 mg/Kg i.p. every other day) were 4.18 ± 57 mg/g and 3.69 ± 0.47 mg/g, respectively. Besides, the “Spleen index (mg/g)” value in data set [2] (small dosage 75 mg/Kg i.p. every other day) is recorded as 5.13 ± 1.24^(1)(3) mg/g.

As to `Cc1nc(C)c(COC(=O)C23CCC(C)(C)CC2C2=CCC4C5(C)CCC(O)C(C)(C)C5CCC4(C)C2(C)CC3)nc1C` (centres unmarked) [LQC-Y3, (3,5,6-trimethyl pyrazine-2-yl)methyl-10-hydroxy-2,2,6a,6b,9,9,12a-heptamethyl-1,2,3,4,4a,5,6,6a,6b,7,8,8a,9,10,11,12,12a,12b,13,14b-eicosahydropicene-4a-carboxylate], in data set [1] (75-300 mg/kg i.p.), the “effect on the spleen index of tumor bearing mice” value was “can Increase the Spleen Index”. The “spleen index compared with the negative control group” value in data set [1] is given as “bigger than the negative control group”. Further, the “Spleen index (mg/g)” value is on record as 4.82 ± 2.23^(2) mg/g in data set [1] (S180 mice, large dosage 300 mg/kg i.p. every other day, 15 days) and 5.68 ± 1.77^(1)(4) mg/g in data set [1] (S180 mice, middle dosage 150 mg/Kg i.p. every other day, 15 days). In addition, the “Spleen index” value in data set [1] (S180 mice, small dosage 75 mg/Kg i.p. every other day, 15 days) is on record as 4.36 ± 1.13 mg/g.
